Measurements taken from patent US7053043B1, “Pharmaceutical compositions comprising synthetic peptide copolymers and methods for preventing and treating GVHD and HVGD” (Yeda Research and Development Co.Ltd., priority 1999, dated 2006).
At least one structure is not confirmed: it was looked up by name or label, or the drawing left a doubt.

Tested on: function of transplanted thyroids
Test: Thyroid graft assay for HVGD (125I absorption of thyroid transplanted in kidney capsule)
Format: in vivo, mice
Conditions: B10.D2 → BALB/c; doses of Table 5
Experimental: In this transplantation model for HVGD, thyroid glands from donor mice were transplanted in the kidney's capsules of recipient mice. One week later the transplanted mice were injected with ^125I, and the radioactivity of each kidney (the recipient or the untransplanted kidney) was measured after 20 hours. Δcpm was calculated by subtracting the ^125I absorbance of the untransplanted kidneys from the ^125I absorbance of the recipient kidneys in the same treatment. The mean function index (MFI) for treatment was calculated by dividing the mean Δcpm for the tested (Copolymer 1) treatment by the mean Δcpm for the PBS treatment. P values were obtained by the t test. This assay indicates objectively and quantitatively not only the graft survival, but also the function (iodine absorbance) of the transplanted thyroid tissue (Isakov et al., 1979). […]
To test the effect of Copolymer 1 treatment on the function of transplanted thyroids in the B10.D2→BALB/c model, thyroid glands from donors B10.D2 were transplanted in the kidney's capsules of BALB/c mice. After one week the transplanted mice were injected with ^125I, and the radioactivity of each kidney was measured 20 hours later. cpm was calculated by subtracting the ^125I absorbance of the untransplanted kidneys from the ^125I absorbance of the recipient kidneys in the same treatment. […]

## C=CC[C@@H]1/C=C(\C)C[C@H](C)C[C@H](OC)[C@H]2O[C@@](O)(C(=O)C(=O)N3CCCC[C@H]3C(=O)O[C@H](/C(C)=C/[C@@H]3CC[C@@H](O)[C@H](OC)C3)[C@H](C)[C@@H](O)CC1=O)[C@H](C)C[C@@H]2OC [FK506]
  effect on graft function in the thyroid transplantation system: significantly improved
